# Measurements: article PMC7819943, “Rice protein-binding microarrays: a tool to detect cis-acting elements near promoter regions in rice”
# Some of the results follow.
# Molecular target: T1, OsSMF1 (Oryza sativa, UniProt Q6ZLB0 1-436)
# T1 sequence: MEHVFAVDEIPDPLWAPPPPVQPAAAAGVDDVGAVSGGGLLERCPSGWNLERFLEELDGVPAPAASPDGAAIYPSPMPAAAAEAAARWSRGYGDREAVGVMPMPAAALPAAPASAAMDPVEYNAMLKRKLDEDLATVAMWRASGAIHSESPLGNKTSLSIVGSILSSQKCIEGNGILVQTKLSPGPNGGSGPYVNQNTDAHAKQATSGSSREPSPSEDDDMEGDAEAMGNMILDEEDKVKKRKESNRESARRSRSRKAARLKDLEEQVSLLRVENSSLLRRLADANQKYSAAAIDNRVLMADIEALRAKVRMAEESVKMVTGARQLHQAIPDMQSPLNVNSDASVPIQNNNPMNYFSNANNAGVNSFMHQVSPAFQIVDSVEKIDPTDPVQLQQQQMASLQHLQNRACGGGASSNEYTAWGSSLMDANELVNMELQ
# Assay: protein-binding microarray (RPBM); PBS, 2% BSA, 51.3 ng/ul salmon testes DNA, 50 uM zinc acetate, 200 nM TF, 25 C, 1 h; high values mean tight binding
# Conditions: protein: recombinant; tags: N-terminal polyhistidine and DsRed monomer fusion (pET32a); chain copies: 2; label: CyDye5-dUTP incorporated in the synthesized complementary strand; 3' TTTTT single-stranded linker to array surface; dsDNA, one strand shown
# Summary of the method: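 For the binding signal, per-feature fluorescence intensity was read in arbitrary units on an Axon 4000B scanner. Before scanning, a 2% BSA-blocked custom Agilent array made double-stranded with Cy5-dUTP was washed after 1 h at 25 °C with 200 nM protein and 50 µM zinc acetate. The proteins were Ni–NTA-purified transcription factors with N-terminal polyhistidine and DsRed fusions, expressed in E. coli BL21-CodonPlus.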
row,Sequence,binding signal
1,ACCGCCACCGCGACCGCCGCCGCAGCAAGCAGCGTCATCCCGGAGTCACCTAGTGCAG,3660 fluorescence intensity (a.u.)
2,TCATACACATACAACTTTTCAGTCACATCATTTACAATTTCGGAGTCACCTAGTGCAG,29000 fluorescence intensity (a.u.)
3,AAAACCCAATTAGTCATACATTATTACCACATCGTTTTACCGGAGTCACCTAGTGCAG,3700 fluorescence intensity (a.u.)
4,GCGTGGTGTGTACTCCTGCTGTCCCTGCTGCGGCTACAGCCGGAGTCACCTAGTGCAG,4410 fluorescence intensity (a.u.)
5,ATTTTGTCTTAGTTCTTGAAACGTCACACACGCTGATGGCCGGAGTCACCTAGTGCAG,3780 fluorescence intensity (a.u.)
6,AGGCGGAGACGAGTCGGCGGCGGCGGCGATGGCTGACCCCCGGAGTCACCTAGTGCAG,24800 fluorescence intensity (a.u.)
7,CCGGCTGATGTGGCGGCACTGCTGCCTGCCTCACTAATCCCGGAGTCACCTAGTGCAG,8500 fluorescence intensity (a.u.)
8,TCCCACCCTATTTCCGACGCCACGCTGTTGCCACATCAGACGGAGTCACCTAGTGCAG,8980 fluorescence intensity (a.u.)
9,CAACAAACGTCCCCGGTGATGATGTGGATCACCACAACAACGGAGTCACCTAGTGCAG,5060 fluorescence intensity (a.u.)
10,TGTGCATGTCCACGTGTTATCGCTTTCCTCACAATTCATCCGGAGTCACCTAGTGCAG,12600 fluorescence intensity (a.u.)
11,TATCATATCCGTGTGGCATGCCACATCAACGCCACGTAGGCGGAGTCACCTAGTGCAG,25500 fluorescence intensity (a.u.)
12,TTCTTTCGTTAGTTCACCAAAGATGGGCATTTTACTAAGACGGAGTCACCTAGTGCAG,65000 fluorescence intensity (a.u.)
13,GTTTCTTATTTTATGAATGGTATGAGTAAGAATATGTTTGCGGAGTCACCTAGTGCAG,3690 fluorescence intensity (a.u.)
14,GTTCATACTACTGATGTCAGCATTGTCTTGCACTTTCCTACGGAGTCACCTAGTGCAG,16300 fluorescence intensity (a.u.)
15,GTACAATCTGATGCTATGAGTAATATACAACTAATGCTACCGGAGTCACCTAGTGCAG,3220 fluorescence intensity (a.u.)
16,GCCTCTGTGAGAGAACAACGTGGAAGGCCATTATTTCTTGCGGAGTCACCTAGTGCAG,19100 fluorescence intensity (a.u.)
17,CCCGACGTACTACGCGCCCACGCACGCACGACGGGACGGCCGGAGTCACCTAGTGCAG,4330 fluorescence intensity (a.u.)
18,GGTAGGGTGGGGATGGGGTGTGTGCTAGCAATCCCGGTGGCGGAGTCACCTAGTGCAG,4380 fluorescence intensity (a.u.)
19,TCATTTCCTCAGCAAGGTCATGTGCTAGTGCTTGTCACTGCGGAGTCACCTAGTGCAG,3460 fluorescence intensity (a.u.)
20,GTTCCTCACCAGCCTCGTTGAGATCAGGTCTAAGGCGTCACGGAGTCACCTAGTGCAG,3870 fluorescence intensity (a.u.)
21,TCCATAGATTCTCCCTGCATTTTGTTCTTGGCAGACTATTCGGAGTCACCTAGTGCAG,3500 fluorescence intensity (a.u.)
22,CAGGTAACTACAGTGTAACTTGTATATAAGTTTCACGTAACGGAGTCACCTAGTGCAG,34700 fluorescence intensity (a.u.)
23,GCGTGCGGGCGCGGCCGGTGGAAAGGTGGGGCGGCCCAAACGGAGTCACCTAGTGCAG,20800 fluorescence intensity (a.u.)
24,ATGTATGATAAACTAAAGCCTGACTCTTCTATGCTTCTTGCGGAGTCACCTAGTGCAG,3340 fluorescence intensity (a.u.)
25,CGTGCCACACCCCGCACGTGCGCAAGTCCATGACGTGAGCCGGAGTCACCTAGTGCAG,4660 fluorescence intensity (a.u.)
26,ATCGGGGTCGTCACCGCTGGCCAGCACCCCAAGCCTCTGTCGGAGTCACCTAGTGCAG,3320 fluorescence intensity (a.u.)
27,TAGAATTTCTCTTCATATAATGCTACGTCATTGCTATATACGGAGTCACCTAGTGCAG,10300 fluorescence intensity (a.u.)

# Given bar-delimited: entries from further up
row | Sequence | binding signal
24 | ATGTATGATAAACTAAAGCCTGACTCTTCTATGCTTCTTGCGGAGTCACCTAGTGCAG | 3340 fluorescence intensity (a.u.)
25 | CGTGCCACACCCCGCACGTGCGCAAGTCCATGACGTGAGCCGGAGTCACCTAGTGCAG | 4660 fluorescence intensity (a.u.)

# Remaining list, next part

row,Sequence,binding signal
1,GACATGTACACATTAGACTTTGGCAGGAAATTATACTGGCCGGAGTCACCTAGTGCAG,19900 fluorescence intensity (a.u.)
2,CTGCCCAACAAAGTCCAGAAACTTCACGACATTCAATTGCCGGAGTCACCTAGTGCAG,22600 fluorescence intensity (a.u.)
3,AGAGGCGAAATCGCGGCTACGGAGGCGGCGGCGGTGGCGGCGGAGTCACCTAGTGCAG,3390 fluorescence intensity (a.u.)
4,GACGCTCCACGACGCCCACTGCACTCCCGACACGTTTCCCCGGAGTCACCTAGTGCAG,5020 fluorescence intensity (a.u.)
5,GGATCCATGCCCGGGCCTCCACCCTCGTCAGCTCTGTTGACGGAGTCACCTAGTGCAG,4860 fluorescence intensity (a.u.)
6,CTCCAAGTATGACATGGACGAGGACATGTCGATACAGGAGCGGAGTCACCTAGTGCAG,31800 fluorescence intensity (a.u.)
7,TATCCTAAAATAAATACACGTAGTACGTAATGTGGTTCCACGGAGTCACCTAGTGCAG,4360 fluorescence intensity (a.u.)
8,TAATACTCTAAATATGTGTCTAAATATCCGATGTGACAGTCGGAGTCACCTAGTGCAG,30000 fluorescence intensity (a.u.)
9,TGTTCTCCTAGTGATGTTTAGTTGGTTAGTAATGAGGTGGCGGAGTCACCTAGTGCAG,5640 fluorescence intensity (a.u.)
10,ATCATTCTCCACGTACGCATGCCTCTCTTGCGTGTTATCGCGGAGTCACCTAGTGCAG,15400 fluorescence intensity (a.u.)
11,AAAACAGAGGAGTATTCTTATGACGCTGTCAACAAGTTTACGGAGTCACCTAGTGCAG,5630 fluorescence intensity (a.u.)
12,AGGTACAATAATGACATGGCGTAAAGGCCATTGCAATACTCGGAGTCACCTAGTGCAG,5380 fluorescence intensity (a.u.)
13,ATAAATAATTTGCTGACTGGATTGCCACGCGTACGCCACGCGGAGTCACCTAGTGCAG,12000 fluorescence intensity (a.u.)
14,CGATTCATCCAGCGATTAGATGGGCCATCGTACCGGCAGGCGGAGTCACCTAGTGCAG,3220 fluorescence intensity (a.u.)
15,CTCATTCGAACTCACCGCGTCACCGTGACTTTGGCGGCGTCGGAGTCACCTAGTGCAG,5740 fluorescence intensity (a.u.)
16,TACACTGGTCAGATTCGGAAGTTCCGGCACAGTCAGACTGCGGAGTCACCTAGTGCAG,3990 fluorescence intensity (a.u.)
17,AATTTGGTCTCTACTTTCTTTTGTCATTGAAATGATGAATCGGAGTCACCTAGTGCAG,5660 fluorescence intensity (a.u.)
18,AAGCCTTGCTTTGAAATTCCAATTGGACACGTGTCGCATACGGAGTCACCTAGTGCAG,8130 fluorescence intensity (a.u.)
19,GTCCTTTCAGTCTGTGTCTCGTCATCGCGGCGGTATAAATCGGAGTCACCTAGTGCAG,4710 fluorescence intensity (a.u.)
20,TCAATTTTAATGCCACCTGTGCGCCATGTCAACGGCATACCGGAGTCACCTAGTGCAG,6490 fluorescence intensity (a.u.)
21,GACTTGGCCACATCGTTCACACACTTCACTCACACGAGAGCGGAGTCACCTAGTGCAG,14400 fluorescence intensity (a.u.)
22,ACATCGGCGGTGGGGCAAGGTGGTGCATGCATAGGTAGGACGGAGTCACCTAGTGCAG,19500 fluorescence intensity (a.u.)
23,GATGGCGCTCACACGGCGGCGTGGCGCAGCGCCGATGGCGCGGAGTCACCTAGTGCAG,3410 fluorescence intensity (a.u.)
24,CTTTCTTAATCTAATTTGTGTTTTCTTGACTGTCACGTGCCGGAGTCACCTAGTGCAG,3340 fluorescence intensity (a.u.)
25,TGGTGTGAAGAGTGGGACCCACAGGTCAGCCTCATCTGCTCGGAGTCACCTAGTGCAG,3540 fluorescence intensity (a.u.)
26,CGTATATGTATATATACATACTTTATACACATATATATACCGGAGTCACCTAGTGCAG,3360 fluorescence intensity (a.u.)
27,GTCATGAGCGACATGATGTGCCTCCACATCGCCATGGCTCCGGAGTCACCTAGTGCAG,3680 fluorescence intensity (a.u.)

# In another format: results already given.
row | Sequence | binding signal
1 | ACCGCCACCGCGACCGCCGCCGCAGCAAGCAGCGTCATCCCGGAGTCACCTAGTGCAG | 3660 fluorescence intensity (a.u.)
14 | GTTCATACTACTGATGTCAGCATTGTCTTGCACTTTCCTACGGAGTCACCTAGTGCAG | 16300 fluorescence intensity (a.u.)
